Data as given in PubChem BioAssay AID743454 (Peter MacCallum Cancer Centre, 2014)
The whole screen tested about 18,000 reagents; this is a random part of them. 450 of all reagents (2.5%) were called active. 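Single biological run; no consistent viability z cut-off exists, so the class columns, not z-scores, define the calls.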 The numbers tell different reagents against one gene apart.

Aim: 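Genes whose loss kills vorinostat-resistant colon cancer cells under vorinostat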 (primary screen)
Cells: human HCT116-VR colon cancer cells, selected for vorinostat resistance
Reagent: siRNA pool against human genes, 40 nM siRNA pool
Duration: vorinostat for 24 h, read-out about 72 h after transfection
Treatment: vorinostat at 2.5 µM final
Read-out: 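Cell viability by CellTiter-Fluor and caspase 3/7 activity by luminescence, each scaled to mock wells per plate, duplicates averaged, then robust z-scored over all plates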
Direction: viability robust z-score: higher = more viable cells than screen typical; caspase robust z-score: higher = more caspase 3/7 activity than screen typical
Active means: 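Hits are knock-downs in viability class RV1/RV2 or caspase class CA1/CA2, excluding ones that killed cells in the no-drug cell-count arm; hits then retested with single siRNAs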

The opening 4 entries as a preview:
Gene,reagent no.,viability hit class,caspase hit class,viability robust z-score,caspase robust z-score,Call
R3HDML (R3H domain containing like),1,no change,no change,0.84,-0.14,inactive
SGCZ (sarcoglycan zeta),1,no change,no change,-1.13,0.25,inactive
VPS4B (vacuolar protein sorting 4 homolog B),1,no change,no change,-0.42,0.54,inactive
SFTPA1 (surfactant protein A1),1,no change,no change,-0.85,0.36,inactive

The listing, from the first entry:
Gene,reagent no.,viability hit class,caspase hit class,viability robust z-score,caspase robust z-score,Call
R3HDML (R3H domain containing like),1,no change,no change,0.84,-0.14,inactive
SGCZ (sarcoglycan zeta),1,no change,no change,-1.13,0.25,inactive
VPS4B (vacuolar protein sorting 4 homolog B),1,no change,no change,-0.42,0.54,inactive
SFTPA1 (surfactant protein A1),1,no change,no change,-0.85,0.36,inactive
SFTPA1 (surfactant protein A1),2,no change,no change,0.44,-0.59,inactive
ATIC,1,no change,no change,-0.86,0.2,inactive
KRTCAP3 (keratinocyte associated protein 3),1,no change,no change,0.74,-0.23,inactive
MGAM (maltase-glucoamylase),1,no change,no change,0.57,-0.52,inactive
MED25 (mediator complex subunit 25),1,no change,no change,1.02,3.64,inactive
TMEM63B (transmembrane protein 63B),1,no change,no change,-0.61,3.47,inactive
MAZ (MYC associated zinc finger protein),1,no change,no change,-0.18,3.65,inactive
PPP1R26 (protein phosphatase 1 regulatory subunit 26),1,no change,no change,-1,0.74,inactive
HMBOX1 (homeobox containing 1),1,no change,no change,0.33,-0.57,inactive
GTF2I (general transcription factor IIi),1,no change,no change,0.73,-0.33,inactive
"MYB (MYB proto-oncogene, transcription factor)",1,no change,no change,0.59,-0.76,inactive
FBXO17 (F-box protein 17),1,no change,no change,-1.01,1.53,inactive
OR2W1 (olfactory receptor family 2 subfamily W member 1),1,no change,no change,0.61,-0.43,inactive
"MET (MET proto-oncogene, receptor tyrosine kinase)",1,no change,no change,0.52,-0.96,inactive
"ERCC8 (ERCC excision repair 8, CSA ubiquitin ligase complex subunit)",1,no change,no change,-0.44,0.05,inactive
TMED3 (transmembrane p24 trafficking protein 3),1,no change,no change,-3.15,2.97,inactive
ZNF443 (zinc finger protein 443),1,no change,no change,-0.84,0.23,inactive
ACBD6 (acyl-CoA binding domain containing 6),1,no change,no change,-0.15,-0.82,inactive
XPNPEP1 (X-prolyl aminopeptidase 1),1,no change,no change,0.5,0.6,inactive
PLEKHG6 (pleckstrin homology and RhoGEF domain containing G6),1,no change,no change,-0.46,2.22,inactive
CLCN4 (Cl-/H+ antiporter 4),1,no change,no change,0.34,-0.19,inactive
ZER1 (zyg-11 related cell cycle regulator),1,no change,no change,1.63,-0.26,inactive
"PSMC2 (proteasome 26S subunit, ATPase 2)",1,no change,no change,-4.41,1.4,inactive
ATG12 (autophagy related 12),1,no change,no change,-0.02,-1,inactive
"ADGRE4P (adhesion G protein-coupled receptor E4, pseudogene)",1,no change,no change,1.36,-0.08,inactive
CSNK1G3 (casein kinase 1 gamma 3),1,no change,no change,-0.14,0.54,inactive
GPR3 (G protein-coupled receptor 3),1,no change,no change,-1.74,-0.36,inactive
PCCA (propionyl-CoA carboxylase subunit alpha),1,no change,no change,0.04,-0.94,inactive
VPS16 (VPS16 core subunit of CORVET and HOPS complexes),1,no change,no change,-1.44,-0.12,inactive
BMPER (BMP binding endothelial regulator),1,no change,no change,-0.46,-0.45,inactive
KCNC3 (potassium voltage-gated channel subfamily C member 3),1,no change,no change,0.75,-0.64,inactive
MOB2 (MOB kinase activator 2),1,no change,no change,-0.42,0.5,inactive
"TBATA (thymus, brain and testes associated)",1,no change,no change,-1.21,1.96,inactive
ARID1A (AT-rich interaction domain 1A),1,no change,no change,-1.1,0.56,inactive
CD59 (CD59 molecule (CD59 blood group)),1,no change,no change,0.42,2.07,inactive
SLC4A9,1,no change,no change,1.12,0.53,inactive
"RABL3 (RAB, member of RAS oncogene family like 3)",1,no change,no change,0.1,-0.4,inactive
SPATA13 (spermatogenesis associated 13),1,no change,no change,1.32,0.18,inactive
RNF214 (ring finger protein 214),1,no change,no change,-0.16,-0.35,inactive
WDR25 (WD repeat domain 25),1,no change,no change,-1.21,1.73,inactive
RNF43 (ring finger protein 43),1,no change,no change,-0.23,3.27,inactive
CGN (cingulin),1,no change,no change,-0.22,-0.6,inactive
CMTM1 (CKLF like MARVEL transmembrane domain containing 1),1,no change,CA1 (caspase activation),-0.64,5.31,active
ARG2 (arginase 2),1,no change,no change,-0.75,0.67,inactive
"MYMK (myomaker, myoblast fusion factor)",1,no change,no change,0.88,3.43,inactive
TRHR (thyrotropin releasing hormone receptor),1,RV2 (reduced viability),no change,-3.72,3.4,active
SLC29A3,1,no change,no change,-1,-0.48,inactive
NMD3 (NMD3 ribosome export adaptor),1,no change,no change,-1.06,0.18,inactive
GATA2 (GATA binding protein 2),1,no change,no change,-3.16,1.66,inactive
GNG8 (G protein subunit gamma 8),1,RV2 (reduced viability),CA2 (caspase activation),-3.4,5.34,active
FAU (FAU ubiquitin like and ribosomal protein S30 fusion),1,no change,no change,-4.66,-1.93,inactive
NKAIN1 (sodium/potassium transporting ATPase interacting 1),1,no change,no change,-1.19,-0.15,inactive
YJEFN3 (YjeF N-terminal domain containing 3),1,no change,no change,0.16,2.73,inactive
